Reference: doi:10.1101/2025.08.01.668025
These are yes or no findings as the source states them, for the method shown. For part of these data: Binding seen in cells or lysates may run through a third protein. Some entries that bind do so weakly or less than the wild type. Where a sequence is shown, tags or fusion partners need not be part of it.

By UniProt entry, the sequences of proteins in these tests, tags left out.
UniProt Q6X5Y6: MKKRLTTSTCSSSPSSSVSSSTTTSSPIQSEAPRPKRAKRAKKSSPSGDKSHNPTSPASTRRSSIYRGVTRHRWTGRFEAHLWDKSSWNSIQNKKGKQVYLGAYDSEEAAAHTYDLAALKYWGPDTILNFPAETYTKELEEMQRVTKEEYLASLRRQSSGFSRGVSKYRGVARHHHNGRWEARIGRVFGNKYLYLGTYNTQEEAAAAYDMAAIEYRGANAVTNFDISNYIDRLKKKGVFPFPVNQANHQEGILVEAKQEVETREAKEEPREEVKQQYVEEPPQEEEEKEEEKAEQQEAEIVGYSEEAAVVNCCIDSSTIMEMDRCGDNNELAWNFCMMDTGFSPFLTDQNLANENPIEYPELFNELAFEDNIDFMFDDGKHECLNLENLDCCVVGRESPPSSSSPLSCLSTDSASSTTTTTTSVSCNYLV

T1: ESD4 (yeast two-hybrid fusion) (Arabidopsis thaliana) (UniProt Q94F30)
T1 sequence: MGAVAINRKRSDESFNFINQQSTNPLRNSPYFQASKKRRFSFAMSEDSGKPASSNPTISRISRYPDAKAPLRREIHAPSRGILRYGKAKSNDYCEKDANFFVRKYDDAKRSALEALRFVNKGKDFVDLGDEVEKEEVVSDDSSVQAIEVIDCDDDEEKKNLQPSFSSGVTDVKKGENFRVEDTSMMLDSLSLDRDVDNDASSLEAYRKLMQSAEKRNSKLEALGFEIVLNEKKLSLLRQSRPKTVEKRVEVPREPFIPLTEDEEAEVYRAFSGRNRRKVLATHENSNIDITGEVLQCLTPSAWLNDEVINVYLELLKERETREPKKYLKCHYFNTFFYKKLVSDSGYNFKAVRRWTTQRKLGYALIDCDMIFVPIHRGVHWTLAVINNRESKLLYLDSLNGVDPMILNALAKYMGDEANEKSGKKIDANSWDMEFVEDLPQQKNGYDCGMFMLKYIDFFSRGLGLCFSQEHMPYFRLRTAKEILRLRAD

T2: OTS1 (yeast two-hybrid fusion) (Arabidopsis thaliana) (UniProt Q2PS26)
T2 sequence: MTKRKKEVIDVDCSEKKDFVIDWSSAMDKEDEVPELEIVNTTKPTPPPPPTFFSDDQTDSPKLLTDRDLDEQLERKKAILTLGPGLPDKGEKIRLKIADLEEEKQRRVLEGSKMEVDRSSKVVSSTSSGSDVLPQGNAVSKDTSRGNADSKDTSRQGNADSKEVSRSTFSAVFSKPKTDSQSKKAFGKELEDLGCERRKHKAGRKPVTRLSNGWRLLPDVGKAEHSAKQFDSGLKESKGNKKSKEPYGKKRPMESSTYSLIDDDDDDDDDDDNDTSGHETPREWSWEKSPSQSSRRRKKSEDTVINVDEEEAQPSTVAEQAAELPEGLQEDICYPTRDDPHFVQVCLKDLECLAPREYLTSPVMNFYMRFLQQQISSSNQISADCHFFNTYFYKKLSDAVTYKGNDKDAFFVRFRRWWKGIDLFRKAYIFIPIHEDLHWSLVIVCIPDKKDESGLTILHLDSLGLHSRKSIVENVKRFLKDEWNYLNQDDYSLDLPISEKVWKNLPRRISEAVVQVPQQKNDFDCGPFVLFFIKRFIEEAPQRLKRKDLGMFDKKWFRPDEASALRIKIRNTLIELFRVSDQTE

T3: OTS2 (yeast two-hybrid fusion) (Arabidopsis thaliana) (UniProt Q8RWN0)
T3 sequence: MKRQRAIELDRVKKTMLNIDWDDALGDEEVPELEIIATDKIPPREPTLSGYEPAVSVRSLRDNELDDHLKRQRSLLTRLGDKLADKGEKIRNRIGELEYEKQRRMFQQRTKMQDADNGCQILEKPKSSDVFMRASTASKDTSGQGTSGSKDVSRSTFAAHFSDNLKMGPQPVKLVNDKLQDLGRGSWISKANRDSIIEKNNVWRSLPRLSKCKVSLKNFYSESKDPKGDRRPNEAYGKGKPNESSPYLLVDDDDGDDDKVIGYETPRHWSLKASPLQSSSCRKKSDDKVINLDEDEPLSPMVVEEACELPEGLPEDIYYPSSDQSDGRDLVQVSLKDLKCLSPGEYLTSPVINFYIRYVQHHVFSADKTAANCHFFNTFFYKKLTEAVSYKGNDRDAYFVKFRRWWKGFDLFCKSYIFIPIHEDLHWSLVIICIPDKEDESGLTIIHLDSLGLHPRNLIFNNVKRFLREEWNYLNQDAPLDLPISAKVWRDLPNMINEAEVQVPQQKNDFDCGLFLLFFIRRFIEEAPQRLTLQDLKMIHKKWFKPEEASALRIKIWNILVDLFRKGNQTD

T4: ULP1a (yeast two-hybrid fusion) (Arabidopsis thaliana) (UniProt Q8GYL3)
T4 sequence: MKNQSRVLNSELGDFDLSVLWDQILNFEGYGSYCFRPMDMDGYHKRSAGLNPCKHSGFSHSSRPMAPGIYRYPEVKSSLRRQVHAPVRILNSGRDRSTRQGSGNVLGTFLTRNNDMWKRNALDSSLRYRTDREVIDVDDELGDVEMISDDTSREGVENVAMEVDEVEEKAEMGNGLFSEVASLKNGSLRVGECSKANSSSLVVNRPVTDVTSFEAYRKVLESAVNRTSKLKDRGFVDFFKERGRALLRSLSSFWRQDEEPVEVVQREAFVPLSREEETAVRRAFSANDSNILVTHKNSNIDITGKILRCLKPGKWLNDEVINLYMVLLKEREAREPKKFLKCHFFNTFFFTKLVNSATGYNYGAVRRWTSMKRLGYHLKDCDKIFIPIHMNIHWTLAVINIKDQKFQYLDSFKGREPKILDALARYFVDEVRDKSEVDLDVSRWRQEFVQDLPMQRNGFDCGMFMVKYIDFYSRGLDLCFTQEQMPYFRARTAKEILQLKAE

T5: ULP1b (yeast two-hybrid fusion) (Arabidopsis thaliana) (UniProt O65278)
T5 sequence: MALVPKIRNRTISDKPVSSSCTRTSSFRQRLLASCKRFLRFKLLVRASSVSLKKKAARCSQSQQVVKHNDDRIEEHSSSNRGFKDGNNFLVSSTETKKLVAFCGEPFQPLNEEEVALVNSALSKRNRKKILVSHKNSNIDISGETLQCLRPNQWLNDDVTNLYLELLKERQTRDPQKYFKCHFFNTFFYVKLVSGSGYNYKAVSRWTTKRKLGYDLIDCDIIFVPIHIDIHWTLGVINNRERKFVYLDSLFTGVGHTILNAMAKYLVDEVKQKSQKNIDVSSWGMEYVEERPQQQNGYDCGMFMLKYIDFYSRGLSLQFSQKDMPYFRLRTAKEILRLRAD


How the values were obtained:
[1] = target: T1, ESD4 (yeast two-hybrid fusion) (Arabidopsis thaliana); assay: two-hybrid
[2] = target: T2, OTS1 (yeast two-hybrid fusion) (Arabidopsis thaliana); assay: two-hybrid
[3] = target: T3, OTS2 (yeast two-hybrid fusion) (Arabidopsis thaliana); assay: two-hybrid
[4] = target: T4, ULP1a (yeast two-hybrid fusion) (Arabidopsis thaliana); assay: two-hybrid
[5] = target: T5, ULP1b (yeast two-hybrid fusion) (Arabidopsis thaliana); assay: two-hybrid
WRI1-GFP (Arabidopsis) = WRI1-GFP (Arabidopsis) (UniProt Q6X5Y6); assay: co-IP

binding [1] | binding [2] | binding [3] | binding [4] | binding [5] | binding (WRI1-GFP (Arabidopsis)) | Molecule
no binding | no binding | no binding | no binding | no binding | – | WRI1-AD (WRINKLED1 fused to GAL4-AD) (from UniProt Q6X5Y6 1-430)
– | – | – | – | – | binds | BPM2-FLAG (protein, UniProt Q9M8J9 1-406) MDTIRVSKEVPGSSKSTAQSLTESTSRTETINGSHEFKISGYSLVKGMGIGKYVASDTFMVGGYSWAIYFYPDGKSPEDNSVYVSLFIALASEGADVRALFELTLVDQSGNERHKVHSHFGRTLESGPYTLKYRGSMWGYKRFFKRSLLESSDYLKDNGLLVRCCVGVVKSRTEGPRCYNIPVPVSGLGQQFGKLLESGKGADVTFEVDGETFPAHKLVLAARSAVFRAQLFGPLRSENTNCIIIEDVQAPIFKMLLHFIYWDEMPDMQDLIGTDLKWASTLVAQHLLAAADRYALERLRTICESKLCEGISINTVATTLALAEQHHCFQLKAACLKFIALPENLKAVMETDGFDYLKESCPSLLSELLEYVARLSEHSLTSSGHRKELFADGCDLNGRRVKQRLH
